Source: patent US20160002273A1, “THIENO[3,2-D]PYRIMIDINE-6-CARBOXAMIDES AND ANALOGUES AS SIRTUIN MODULATORS” (GLAXOSMITHKLINE LLC, priority 2013, published 2016)
Some of these results come from one statement about several compounds together.

Sequences of proteins named here, by UniProt entry; tags and fusion partners are left off. A change or cut given only in a name is not applied to a line headed by its entry.
UniProt Q12809: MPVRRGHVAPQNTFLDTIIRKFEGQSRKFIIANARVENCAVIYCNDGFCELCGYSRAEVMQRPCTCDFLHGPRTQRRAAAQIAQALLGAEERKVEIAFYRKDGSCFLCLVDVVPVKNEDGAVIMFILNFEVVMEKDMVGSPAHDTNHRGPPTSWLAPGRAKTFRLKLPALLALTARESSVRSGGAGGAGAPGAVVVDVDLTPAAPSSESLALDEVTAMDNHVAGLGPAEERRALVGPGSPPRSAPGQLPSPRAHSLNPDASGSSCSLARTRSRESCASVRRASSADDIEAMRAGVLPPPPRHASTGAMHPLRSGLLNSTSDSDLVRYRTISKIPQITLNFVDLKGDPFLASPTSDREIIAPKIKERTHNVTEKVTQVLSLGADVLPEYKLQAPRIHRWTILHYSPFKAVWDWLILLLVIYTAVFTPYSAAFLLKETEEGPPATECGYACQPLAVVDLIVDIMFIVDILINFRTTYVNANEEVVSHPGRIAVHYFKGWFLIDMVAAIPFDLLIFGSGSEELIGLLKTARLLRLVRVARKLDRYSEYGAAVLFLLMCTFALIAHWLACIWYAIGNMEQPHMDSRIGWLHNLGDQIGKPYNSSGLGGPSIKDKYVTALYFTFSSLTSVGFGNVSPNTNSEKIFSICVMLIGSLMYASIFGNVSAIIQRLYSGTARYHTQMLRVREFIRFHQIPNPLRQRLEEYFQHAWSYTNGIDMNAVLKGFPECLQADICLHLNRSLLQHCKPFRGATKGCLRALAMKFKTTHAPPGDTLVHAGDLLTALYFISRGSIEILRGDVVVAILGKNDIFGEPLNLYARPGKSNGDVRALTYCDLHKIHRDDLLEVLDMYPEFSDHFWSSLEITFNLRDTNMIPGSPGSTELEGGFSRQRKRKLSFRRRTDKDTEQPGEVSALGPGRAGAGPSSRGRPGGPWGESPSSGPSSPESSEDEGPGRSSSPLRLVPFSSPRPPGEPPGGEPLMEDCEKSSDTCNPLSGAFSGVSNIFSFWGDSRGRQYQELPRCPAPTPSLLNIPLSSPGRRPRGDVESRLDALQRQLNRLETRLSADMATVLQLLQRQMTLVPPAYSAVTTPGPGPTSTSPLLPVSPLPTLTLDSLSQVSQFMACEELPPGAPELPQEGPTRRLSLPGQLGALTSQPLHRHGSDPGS

How the values were obtained:
[1] = tested on: panel of kinases, nuclear receptors, ion channels, transporters and GPCRs; experiment: Broad selectivity profiling panel; conditions: generally selective
[2] = target: hERG (Homo sapiens, UniProt Q12809); experiment: hERG binding

SMILES	XC50 [1]	hERG binding [2]
CCNC(=O)c1ccc(C(=O)NCCC2CCN(c3ncnc4cc(C(N)=O)sc34)CC2)s1 [Compound 11c]	> 10 µM	
CC(C)(C)C(=O)NCCC1CCN(c2ncnc3cc(C(N)=O)sc23)CC1 [Compound 28, 4-(4-(2-pivalamidoethyl)piperidin-1-yl)thieno[3,2-d]pyrimidine-6-carboxamide]		> 50 µM
